# In PMC8040471:
# Sequences of proteins named here, by UniProt entry; tags and fusion partners are left off. A change or cut given only in a name is not applied to a line headed by its entry. Residues count along the entry.
# UniProt O95831: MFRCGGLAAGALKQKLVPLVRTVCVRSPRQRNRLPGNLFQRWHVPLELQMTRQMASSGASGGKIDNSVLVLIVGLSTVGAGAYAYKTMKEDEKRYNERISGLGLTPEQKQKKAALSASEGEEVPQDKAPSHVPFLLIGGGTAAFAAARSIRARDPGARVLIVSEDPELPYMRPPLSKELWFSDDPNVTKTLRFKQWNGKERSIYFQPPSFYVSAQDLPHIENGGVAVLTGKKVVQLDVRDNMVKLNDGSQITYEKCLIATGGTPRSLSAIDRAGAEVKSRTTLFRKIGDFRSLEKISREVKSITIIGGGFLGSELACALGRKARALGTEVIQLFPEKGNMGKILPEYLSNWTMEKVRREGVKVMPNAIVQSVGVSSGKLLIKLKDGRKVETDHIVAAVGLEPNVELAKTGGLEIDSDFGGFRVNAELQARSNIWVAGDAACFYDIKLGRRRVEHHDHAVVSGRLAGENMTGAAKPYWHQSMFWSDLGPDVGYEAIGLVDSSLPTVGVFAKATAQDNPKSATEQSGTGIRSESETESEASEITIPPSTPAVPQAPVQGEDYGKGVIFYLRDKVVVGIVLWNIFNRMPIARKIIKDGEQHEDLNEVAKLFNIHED
# AIF 57 kDa (WT), overexpressed: residues 102-613 of O95831
# GST-truncated AIF, amino acids 263-480: residues 263-480 of O95831
# UniProt Q9P286: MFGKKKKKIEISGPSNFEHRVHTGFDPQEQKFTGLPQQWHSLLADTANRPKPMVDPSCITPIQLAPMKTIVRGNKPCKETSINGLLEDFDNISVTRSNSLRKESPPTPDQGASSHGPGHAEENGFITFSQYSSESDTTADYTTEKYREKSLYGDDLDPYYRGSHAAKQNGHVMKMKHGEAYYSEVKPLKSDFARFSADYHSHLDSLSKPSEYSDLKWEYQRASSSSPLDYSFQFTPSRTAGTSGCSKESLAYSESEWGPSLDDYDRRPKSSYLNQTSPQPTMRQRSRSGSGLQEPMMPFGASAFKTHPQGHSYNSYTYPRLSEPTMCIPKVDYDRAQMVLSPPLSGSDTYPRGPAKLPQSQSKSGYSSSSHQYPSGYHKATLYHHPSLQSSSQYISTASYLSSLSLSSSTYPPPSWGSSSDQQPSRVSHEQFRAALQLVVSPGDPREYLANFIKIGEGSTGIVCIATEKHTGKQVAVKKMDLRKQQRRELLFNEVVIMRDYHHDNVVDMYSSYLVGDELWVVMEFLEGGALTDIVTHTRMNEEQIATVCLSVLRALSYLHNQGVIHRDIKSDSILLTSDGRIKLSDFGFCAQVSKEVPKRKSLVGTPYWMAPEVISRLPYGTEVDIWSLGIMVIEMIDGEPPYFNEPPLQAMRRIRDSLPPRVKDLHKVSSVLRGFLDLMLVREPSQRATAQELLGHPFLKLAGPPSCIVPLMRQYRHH
# No constants are given. Whether binding was seen depends on the method and setting. Binding seen in cells or lysates may run through a third protein. Some results given as binding are weak or reduced against the parent protein; the word gives no strength.
# Key:
# [1] = biological target: AIF 57 kDa (WT), overexpressed (human) (UniProt O95831); test: co-IP; breast cancer cells overexpressing PAK5 and AIF 57 kDa; cytoplasmic and nuclear proteins separated by kit, then immunoprecipitation and western blot
# [2] = biological target: GST-truncated AIF, amino acids 263-480 (human) (UniProt O95831); test: pull-down; GST pull-down in vitro with GST-AIF or GST-truncated AIF as bait; method as in ref. 22
Substance,binding [1],binding [2]
"PAK5, overexpressed in cells (from UniProt Q9P286 1-719) (enzyme)",binds,–
PAK5 used in the GST pull-down assays (from UniProt Q9P286 1-719) (enzyme),–,binds
